Results reported in the supplement of paper PMC8728848.
The list shows a part of the results.

Tests used:
Experiment in all cases: glycan array binding signal (z-score within array); higher = stronger binding
Settings in all cases: glycan notation: IUPAC condensed, linker removed
Gal(b1-3)GalNAc(b1-3)Gal = target: Gal(b1-3)GalNAc(b1-3)Gal
Summary of the method: (§1)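 Columns mapping to the same glycan were averaged after glycan names were converted to IUPAC-condensed notation. The data come from 3228 arrays in the Consortium for Functional Glycomics database, limited to those with an available protein sequence. Binding is reported as a within-array Z-score averaged across arrays of one protein sequence and across linkers.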

[1] = target: Gal(b1-3)GalNAc(b1-3)Gal(a1-4)Gal(b1-4)Glc
Summary of the method: as §1

[2] = target: Gal(b1-3)GalNAc(b1-4)Gal(b1-4)Glc
Summary of the method: as §1

[3] = target: Gal(b1-3)GalNAc(b1-4)[Neu5Ac(a2-3)]Gal(b1-4)Glc
Summary of the method: as §1

Gal(b1-3)GlcNAc = target: Gal(b1-3)GlcNAc
Summary of the method: as §1

[4] = target: Gal(b1-3)GlcNAc(a1-3)Gal(b1-4)GlcNAc
Summary of the method: as §1

[5] = target: Gal(b1-3)GlcNAc(a1-6)Gal(b1-4)GlcNAc
Summary of the method: as §1

Gal(b1-3)GlcNAc(b1-2)Man = target: Gal(b1-3)GlcNAc(b1-2)Man
Summary of the method: as §1

[6] = target: Gal(b1-3)GlcNAc(b1-2)Man(a1-3)[Gal(b1-3)GlcNAc(b1-2)Man(a1-6)]Man(b1-4)GlcNAc(b1-4)GlcNAc
Summary of the method: as §1

[7] = target: Gal(b1-3)GlcNAc(b1-2)Man(a1-3)[Gal(b1-3)GlcNAc(b1-2)Man(a1-6)]Man(b1-4)GlcNAc(b1-4)[Fuc(a1-6)]GlcNAc
Summary of the method: as §1

[8] = target: Gal(b1-3)GlcNAc(b1-2)Man(a1-3)[GlcNAc(b1-4)][Gal(b1-3)GlcNAc(b1-2)Man(a1-6)]Man(b1-4)GlcNAc(b1-4)GlcNAc
Summary of the method: as §1

[9] = target: Gal(b1-3)GlcNAc(b1-2)[Gal(b1-3)GlcNAc(b1-6)]Man(a1-6)[Gal(b1-3)GlcNAc(b1-2)Man(a1-3)]Man(b1-4)GlcNAc(b1-4)GlcNAc
Summary of the method: as §1

[10] = target: Gal(b1-3)GlcNAc(b1-3)Gal(b1-3)GlcNAc
Summary of the method: as §1

[11] = target: Gal(b1-3)GlcNAc(b1-3)Gal(b1-4)Glc
Summary of the method: as §1

[12] = target: Gal(b1-3)GlcNAc(b1-3)Gal(b1-4)GlcNAc
Summary of the method: as §1

[13] = target: Gal(b1-3)GlcNAc(b1-3)Gal(b1-4)GlcNAc(b1-2)Man(a1-3)[Gal(b1-3)GlcNAc(b1-3)Gal(b1-4)GlcNAc(b1-2)Man(a1-6)]Man(b1-4)GlcNAc(b1-4)GlcNAc
Summary of the method: as §1

[14] = target: Gal(b1-3)GlcNAc(b1-3)Gal(b1-4)GlcNAc(b1-2)[Gal(b1-3)GlcNAc(b1-3)Gal(b1-4)GlcNAc(b1-6)]Man(a1-6)[Gal(b1-3)GlcNAc(b1-3)Gal(b1-4)GlcNAc(b1-2)Man(a1-3)]Man(b1-4)GlcNAc(b1-4)[Fuc(a1-6)]GlcNAc
Summary of the method: as §1

[15] = target: Gal(b1-3)GlcNAc(b1-3)Gal(b1-4)GlcNAc(b1-3)Gal(b1-4)GlcNAc(b1-2)[Gal(b1-3)GlcNAc(b1-3)Gal(b1-4)GlcNAc(b1-3)Gal(b1-4)GlcNAc(b1-6)]Man(a1-6)[Gal(b1-3)GlcNAc(b1-3)Gal(b1-4)GlcNAc(b1-3)Gal(b1-4)GlcNAc(b1-2)Man(a1-3)]Man(b1-4)GlcNAc(b1-4)[Fuc(a1-6)]GlcNAc
Summary of the method: as §1

[16] = target: Gal(b1-3)GlcNAc(b1-3)Gal(b1-4)GlcNAc(b1-6)[Gal(b1-3)GlcNAc(b1-3)]Gal(b1-4)Glc
Summary of the method: as §1

[17] = target: Gal(b1-3)GlcNAc(b1-3)Gal(b1-4)[Fuc(a1-3)]GlcNAc
Summary of the method: as §1

[18] = target: Gal(b1-3)GlcNAc(b1-3)Gal(b1-4)[Fuc(a1-3)]GlcNAc(b1-6)[Gal(b1-3)GlcNAc(b1-3)]Gal(b1-4)Glc
Summary of the method: as §1

[19] = target: Gal(b1-3)GlcNAc(b1-3)GalNAc
Summary of the method: as §1

[20] = target: Gal(b1-3)GlcNAc(b1-6)Gal(b1-4)GlcNAc
Summary of the method: as §1

[21] = target: Gal(b1-3)GlcNAc(b1-6)GalNAc
Summary of the method: as §1

[22] = target: Gal(b1-3)GlcNAc(b1-6)[Gal(b1-3)]GalNAc
Summary of the method: as §1

Gal(b1-3)GlcNAc6S = target: Gal(b1-3)GlcNAc6S
Summary of the method: as §1

[23] = target: Gal(b1-3)[Fuc(a1-4)]GlcNAc
Summary of the method: as §1

[24] = target: Gal(b1-3)[Fuc(a1-4)]GlcNAc(b1-2)Man
Summary of the method: as §1

[25] = target: Gal(b1-3)[Fuc(a1-4)]GlcNAc(b1-2)Man(a1-3)[Gal(b1-3)[Fuc(a1-4)]GlcNAc(b1-2)Man(a1-6)]Man(b1-4)GlcNAc(b1-4)[Fuc(a1-6)]GlcNAc
Summary of the method: as §1

[26] = target: Gal(b1-3)[Fuc(a1-4)]GlcNAc(b1-3)Gal(b1-3)[Fuc(a1-4)]GlcNAc
Summary of the method: as §1

[27] = target: Gal(b1-3)[Fuc(a1-4)]GlcNAc(b1-3)Gal(b1-4)[Fuc(a1-3)]GlcNAc
Summary of the method: as §1

[28] = target: Gal(b1-3)[Fuc(a1-4)]GlcNAc(b1-6)GalNAc
Summary of the method: as §1

[29] = target: Gal(b1-3)[GlcNAc(b1-6)]GalNAc
Summary of the method: as §1

[30] = target: Gal(b1-3)[Neu5Ac(a2-6)]GalNAc
Summary of the method: as §1

[31] = target: Gal(b1-3)[Neu5Ac(a2-6)]GlcNAc(b1-4)Gal(b1-4)Glc
Summary of the method: as §1

[32] = target: Gal(b1-3)[Neu5Ac(b2-6)]GalNAc
Summary of the method: as §1

Gal(b1-4)Gal = target: Gal(b1-4)Gal
Summary of the method: as §1

[33] = target: Gal(b1-4)GalNAc(a1-3)[Fuc(a1-2)]Gal(b1-4)GlcNAc
Summary of the method: as §1

B1: Erv46-EDTA (Saccharomyces cerevisiae), P39727 (protein)
chain: MKFLVNVALVFMVVYISYIYAAAPEHHHHHHDYDIPTTENLYFQGAMDSVVTRPQLVVDRDRHAKLELNMDVTFPSMPCDLVNLDIMDDSGEMQLDILDAGFTMSRLNSEGRPVGDATELHVGGNGDGTAPVNNDPNYCGPCYGAKDQSQNENLAQEEKVCCQDCDAVRSAYLEAGWAFFDGKNIEQCEREGYVSKINEHLNEGCRIKGSAQINRIQGNLHFAPGKPYQNAYGHFHDTSLYDKTSNLNFNHIINHLSFGKPIQSHSKLLGNDKRHGGAVVATSPLDGRQVFPDRNTHFHQFSYFAKIVPTRYEYLDNVVIETAQFSATFHSRPLAGGRDKDHPNTLHVRGGIPGMFVFFEMSPLKVINKEQ
Question: How did the “glycan array binding signal (z-score)” value (Gal(b1-3)GalNAc(b1-3)Gal) turn out when B1 was run?
Answer: Its value is -0.564.

Question: And the “glycan array binding signal (z-score)” value [1]?
Answer: The value was -0.249.

Question: And the “glycan array binding signal (z-score)” value [2]?
Answer: Its value is -0.792.

Question: And the “glycan array binding signal (z-score)” value [3]?
Answer: Its value is -0.138.

Question: And the “glycan array binding signal (z-score)” value (Gal(b1-3)GlcNAc)?
Answer: The value was 0.457.

Question: And the “glycan array binding signal (z-score)” value [4]?
Answer: The value was -0.727.

Question: What about the “glycan array binding signal (z-score)” value [5] of the same binder?
Answer: Its value is -0.279.

Question: What about the “glycan array binding signal (z-score)” value (Gal(b1-3)GlcNAc(b1-2)Man) of the same binder?
Answer: Its value is 0.036.

Question: What about the “glycan array binding signal (z-score)” value [6] of the same binder?
Answer: The value was 1.12.

Question: What about the “glycan array binding signal (z-score)” value [7] of the same binder?
Answer: The value was 0.136.

Question: And the “glycan array binding signal (z-score)” value [8]?
Answer: The value was 1.03.

Question: And the “glycan array binding signal (z-score)” value [9]?
Answer: The value was -0.482.

Question: What about the “glycan array binding signal (z-score)” value [10] of the same binder?
Answer: Its value is -0.355.

Question: What about the “glycan array binding signal (z-score)” value [11] of the same binder?
Answer: The value was 0.148.

Question: What about the “glycan array binding signal (z-score)” value [12] of the same binder?
Answer: The value was -0.08.

Question: What about the “glycan array binding signal (z-score)” value [13] of the same binder?
Answer: The value was 0.126.

Question: And the “glycan array binding signal (z-score)” value [14]?
Answer: The value was 1.78.

Question: What about the “glycan array binding signal (z-score)” value [15] of the same binder?
Answer: The value was 1.09.

Question: What about the “glycan array binding signal (z-score)” value [16] of the same binder?
Answer: Its value is -0.342.

Question: What about the “glycan array binding signal (z-score)” value [17] of the same binder?
Answer: Its value is -0.817.

Question: What about the “glycan array binding signal (z-score)” value [18] of the same binder?
Answer: Its value is -0.818.

Question: What about the “glycan array binding signal (z-score)” value [19] of the same binder?
Answer: Its value is -1.05.

Question: What about the “glycan array binding signal (z-score)” value [20] of the same binder?
Answer: The value was -0.702.

Question: And the “glycan array binding signal (z-score)” value [21]?
Answer: Its value is -0.012.

Question: What about the “glycan array binding signal (z-score)” value [22] of the same binder?
Answer: Its value is -0.696.

Question: And the “glycan array binding signal (z-score)” value (Gal(b1-3)GlcNAc6S)?
Answer: The value was 0.208.

Question: What about the “glycan array binding signal (z-score)” value [23] of the same binder?
Answer: Its value is -0.19.

Question: What about the “glycan array binding signal (z-score)” value [24] of the same binder?
Answer: Its value is 1.62.

Question: What about the “glycan array binding signal (z-score)” value [25] of the same binder?
Answer: The value was 0.195.

Question: And the “glycan array binding signal (z-score)” value [26]?
Answer: Its value is 0.259.

Question: What about the “glycan array binding signal (z-score)” value [27] of the same binder?
Answer: Its value is 0.411.

Question: And the “glycan array binding signal (z-score)” value [28]?
Answer: The value was 0.704.

Question: And the “glycan array binding signal (z-score)” value [29]?
Answer: The value was -0.116.

Question: What about the “glycan array binding signal (z-score)” value [30] of the same binder?
Answer: The value was -0.118.

Question: What about the “glycan array binding signal (z-score)” value [31] of the same binder?
Answer: Its value is -0.483.

Question: What about the “glycan array binding signal (z-score)” value [32] of the same binder?
Answer: The value was 0.175.

Question: What about the “glycan array binding signal (z-score)” value (Gal(b1-4)Gal) of the same binder?
Answer: Its value is -0.373.

Question: What about the “glycan array binding signal (z-score)” value [33] of the same binder?
Answer: The value was -0.112.
